This is an account of results in patent publication US7094760B2, “Peptides for treatment of inflammation and shock” (Salpep Biotechnology, Inc., priority 1996, dated 2006).

The subject of this data set is ovalbumin-sensitized Sprague-Dawley rats, submandibular glands removed. The data set can be described thus: anaphylactic hypotension and heart function (VPSP, dP/dt), Example 10. It is filed as in vivo, rat. As to the method: Methods: Sprague-Dawley rats (200–300 g) were sensitized with 1 mg ovalbumin and 50 ng Pertussin toxin (Sigma) (24) one month prior to experimentation. The submandibular glands were removed bilaterally 7 days prior to the experiment by previously described procedures (23). Rats were anesthetized with sodium pentobarbital (65 mg/kg) and a tracheal tube (PE240 polyethylene tubing) was inserted before performing further surgeries. The jugular vein was-cannulated for injection of ovalbumin antigen, which was given as a bolus (100 μg/kg) over 10 sec. The right carotid artery was cannulated and the cannula tip was slowly advanced into the left ventricle, as detected when diastolic pressure fell to near 0 mmHg. The ventricular cannula was connected to a TXD-310 transducer and heart function parameters were recorded using a Digi-Med Heart Performance Analyser (Micro-Med, Louisville, Ky.). The effects of anaphylaxis on heart function were analysed by comparing the changes in ventricular peak systolic pressure (VPSP), and in the rate of ventricular contraction during systole (dP/dt) and relaxation during distole (−dP/dt). Antigen was injected at 10 min. The anaphylactic response was followed for 30 min.
Very rapidly (within 1 min) after the intravenous injection of antigen into ovalbumin-sensitized rats, VPSP dropped and minimal ventricular pressures were measured at 5 min after initiation of the anaphylactic reaction.
To determine if anaphylaxis directly affected heart function, the percent changes in VPSP were plotted against percent changes in dP/dt and −dP/dt. […] By analysis of variance, the slopes of the regression lines of dP/dt and −dP/dt were not different from unity.

As to “H-TDIFEGG-OH [SGP-T, submandibular gland peptide T, TDIFEGG]”, for the setting “10 μg/kg”, the “regression line % VPSP vs % dP/dt, intercept” value is recorded as 0.02(±0.02); the “regression line % VPSP vs % dP/dt, slope” value is 1.00(±0.05); the “regression line % VPSP vs % −dP/dt, intercept” value is 0.01(±0.02); the “regression line % VPSP vs % −dP/dt, slope” value is “Y = 1.55(±0.04)X +”. Further, where the note is “35 μg/kg”, the “regression line % VPSP vs % dP/dt, slope” value is 1.17(±0.09); the “regression line % VPSP vs % −dP/dt, intercept” value is on record as 0.19(±0.03); the “regression line % VPSP vs % −dP/dt, slope” value is given as “Y = 1.62(±0.09)X +”. Further, the “slopes of the regression lines of dP/dt or −dP/dt versus saline” value (35 or 100 μg/kg) was “No differences”.
